Test results taken from PMC3447885.
Results are given in words; binding and its absence hold for the method and conditions named.

Biological target: MSL2 CXC domain construct CXC-3 (residues 520-570, C560G) (D. melanogaster) (UniProt P50534)
Assay: native MS; CXC-3 exchanged into 200 mM ammonium acetate, electrospray ionization on a Q-Star instrument, conditions that preserve the native protein structure; both purified

binding: no binding
B1: MSL2 CXC domain construct CXC-3 (residues 520-570, C560G) (domain or fragment, UniProt P50534 520-570)
chain: SPPKPKCRCGISGSSNTLTTCRNSRCPCYKSYNSCAGCHCVGCKNPHKEDYV
